Experimental data from PMC8257933.
Results are given in words; binding and its absence hold for the method and conditions named. For some of these results: Binding seen in cells or lysates may run through a third protein. Some binding calls cover weakened binding; strength is not graded here. Sequences can lack the tags named with a protein.

Assays:
[1] = biological target: T1, NTCP-GFP fusion protein, wild type, on HEK293 cells (human) (UniProt Q14973); test: binding of a fluorescent peptide to transfected cells (fluorescence microscopy); HEK293 cells expressing NTCP-GFP incubated with 50 nM preS1-AF568 in DMEM for 20 min at 37°C, washed with PBS; overlay of green and red fluorescence; only the binder purified
T1 sequence: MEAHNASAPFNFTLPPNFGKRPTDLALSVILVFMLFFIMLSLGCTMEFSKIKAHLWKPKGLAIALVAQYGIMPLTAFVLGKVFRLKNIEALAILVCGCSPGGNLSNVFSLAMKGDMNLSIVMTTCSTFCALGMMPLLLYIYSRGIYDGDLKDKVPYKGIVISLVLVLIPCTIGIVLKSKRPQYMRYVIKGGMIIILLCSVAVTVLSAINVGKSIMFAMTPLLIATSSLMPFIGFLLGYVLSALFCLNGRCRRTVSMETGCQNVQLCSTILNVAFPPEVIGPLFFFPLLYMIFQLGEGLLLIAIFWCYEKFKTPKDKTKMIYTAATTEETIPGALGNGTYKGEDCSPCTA

[2] = biological target: T2, NTCP-G60LXXXA64L-GFP (TMD2 mutant), on HEK293 cells (human) (UniProt Q14973); test: as above
T2 sequence: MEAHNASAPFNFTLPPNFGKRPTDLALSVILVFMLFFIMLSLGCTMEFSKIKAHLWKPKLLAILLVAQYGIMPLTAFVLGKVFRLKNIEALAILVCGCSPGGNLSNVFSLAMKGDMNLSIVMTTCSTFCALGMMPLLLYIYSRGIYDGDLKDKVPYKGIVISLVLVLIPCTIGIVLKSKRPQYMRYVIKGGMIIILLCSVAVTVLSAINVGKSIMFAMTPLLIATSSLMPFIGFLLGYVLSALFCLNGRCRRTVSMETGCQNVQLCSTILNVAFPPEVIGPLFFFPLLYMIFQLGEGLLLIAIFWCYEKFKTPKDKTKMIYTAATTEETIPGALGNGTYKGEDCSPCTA

[3] = biological target: T3, Na+/taurocholate co-transporting polypeptide (NTCP), wild type, MYTH bait and prey fusions (human) (UniProt Q14973); test: two-hybrid; split-ubiquitin membrane yeast two-hybrid (MYTH), strain NMY51; NTCP-Cub-LexA-VP16 bait with NTCP-HA-NubG preys; growth (dripping) and colony counts on SD-AHLW plates with 25 mM 3-AT, 30°C, 5 days
T3 sequence: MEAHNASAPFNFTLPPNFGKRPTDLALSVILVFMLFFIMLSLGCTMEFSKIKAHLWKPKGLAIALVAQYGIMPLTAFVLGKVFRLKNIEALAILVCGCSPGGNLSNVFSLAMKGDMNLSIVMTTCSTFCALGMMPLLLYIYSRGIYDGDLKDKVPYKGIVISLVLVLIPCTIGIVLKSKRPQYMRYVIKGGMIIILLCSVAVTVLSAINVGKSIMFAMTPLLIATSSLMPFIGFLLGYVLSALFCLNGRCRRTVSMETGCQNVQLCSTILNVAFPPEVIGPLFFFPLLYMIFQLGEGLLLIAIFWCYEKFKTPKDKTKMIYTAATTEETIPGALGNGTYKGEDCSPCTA

[4] = biological target: T4, NTCP-FLAG G60LXXXA64L/G233LXXXG237L (TMD2/7) double mutant (human) (UniProt Q14973); test: co-IP; HEK293 cells co-transfected with NTCP-FLAG and NTCP-V5-His constructs; lysis in 20 mM Tris-HCl, 135 mM NaCl, 10% glycerol, 1% Nonidet P40; anti-FLAG magnetic agarose overnight at 4°C; western blot with anti-V5
T4 sequence: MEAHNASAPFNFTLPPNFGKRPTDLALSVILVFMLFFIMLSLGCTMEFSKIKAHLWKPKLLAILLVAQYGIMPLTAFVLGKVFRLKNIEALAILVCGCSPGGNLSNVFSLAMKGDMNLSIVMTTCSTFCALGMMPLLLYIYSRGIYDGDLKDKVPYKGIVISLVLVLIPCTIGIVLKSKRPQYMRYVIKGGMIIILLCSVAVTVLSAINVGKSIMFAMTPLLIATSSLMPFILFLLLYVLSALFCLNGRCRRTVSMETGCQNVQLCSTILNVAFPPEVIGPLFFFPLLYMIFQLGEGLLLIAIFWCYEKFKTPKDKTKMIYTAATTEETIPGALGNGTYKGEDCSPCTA

[5] = biological target: T5, NTCP-FLAG G233LXXXG237L (TMD7) mutant (human) (UniProt Q14973); test: as above
T5 sequence: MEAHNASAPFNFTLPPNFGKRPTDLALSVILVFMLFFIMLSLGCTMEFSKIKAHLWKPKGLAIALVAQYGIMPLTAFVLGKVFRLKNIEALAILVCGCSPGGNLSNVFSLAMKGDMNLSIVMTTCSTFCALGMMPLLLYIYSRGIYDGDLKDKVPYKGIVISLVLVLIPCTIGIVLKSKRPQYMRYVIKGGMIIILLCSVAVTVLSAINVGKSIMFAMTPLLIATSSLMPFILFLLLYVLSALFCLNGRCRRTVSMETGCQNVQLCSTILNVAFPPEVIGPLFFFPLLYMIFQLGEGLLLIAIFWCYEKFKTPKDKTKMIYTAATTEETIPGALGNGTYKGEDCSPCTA

[6] = biological target: T6, NTCP-FLAG G60LXXXA64L (TMD2) mutant (human) (UniProt Q14973); test: as above
T6 sequence: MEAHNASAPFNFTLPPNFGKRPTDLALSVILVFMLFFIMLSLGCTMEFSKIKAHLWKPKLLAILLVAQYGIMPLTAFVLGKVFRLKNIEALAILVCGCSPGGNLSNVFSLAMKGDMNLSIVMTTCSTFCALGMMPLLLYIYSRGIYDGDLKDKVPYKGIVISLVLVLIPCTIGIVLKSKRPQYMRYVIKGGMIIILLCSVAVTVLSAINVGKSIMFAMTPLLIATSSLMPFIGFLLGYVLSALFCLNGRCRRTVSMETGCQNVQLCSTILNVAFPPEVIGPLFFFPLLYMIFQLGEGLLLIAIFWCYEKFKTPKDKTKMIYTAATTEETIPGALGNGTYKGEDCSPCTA

[7] = biological target: NTCP wild type, NTCP-FLAG and NTCP-V5-His expressed in HEK293 cells (human) (UniProt Q14973); test: as above

HBV/HDV-derived preS1 2-48 peptide labelled with AlexaFluor568 (from UniProt P03138 2-48)
binding [1]: binds | binding [2]: binds

B1: Na+/taurocholate co-transporting polypeptide (NTCP), wild type, MYTH bait and prey fusions (protein, UniProt Q14973 1-349)
chain: MEAHNASAPFNFTLPPNFGKRPTDLALSVILVFMLFFIMLSLGCTMEFSKIKAHLWKPKGLAIALVAQYGIMPLTAFVLGKVFRLKNIEALAILVCGCSPGGNLSNVFSLAMKGDMNLSIVMTTCSTFCALGMMPLLLYIYSRGIYDGDLKDKVPYKGIVISLVLVLIPCTIGIVLKSKRPQYMRYVIKGGMIIILLCSVAVTVLSAINVGKSIMFAMTPLLIATSSLMPFIGFLLGYVLSALFCLNGRCRRTVSMETGCQNVQLCSTILNVAFPPEVIGPLFFFPLLYMIFQLGEGLLLIAIFWCYEKFKTPKDKTKMIYTAATTEETIPGALGNGTYKGEDCSPCTA
binding [3]: binds

B2: NTCP G60LXXXA64L (TMD2) mutant, MYTH prey fusion (protein, UniProt Q14973 1-349)
chain: MEAHNASAPFNFTLPPNFGKRPTDLALSVILVFMLFFIMLSLGCTMEFSKIKAHLWKPKLLAILLVAQYGIMPLTAFVLGKVFRLKNIEALAILVCGCSPGGNLSNVFSLAMKGDMNLSIVMTTCSTFCALGMMPLLLYIYSRGIYDGDLKDKVPYKGIVISLVLVLIPCTIGIVLKSKRPQYMRYVIKGGMIIILLCSVAVTVLSAINVGKSIMFAMTPLLIATSSLMPFIGFLLGYVLSALFCLNGRCRRTVSMETGCQNVQLCSTILNVAFPPEVIGPLFFFPLLYMIFQLGEGLLLIAIFWCYEKFKTPKDKTKMIYTAATTEETIPGALGNGTYKGEDCSPCTA
binding [3]: binds

B3: NTCP G233LXXXG237L (TMD7) mutant, MYTH prey fusion (protein, UniProt Q14973 1-349)
chain: MEAHNASAPFNFTLPPNFGKRPTDLALSVILVFMLFFIMLSLGCTMEFSKIKAHLWKPKGLAIALVAQYGIMPLTAFVLGKVFRLKNIEALAILVCGCSPGGNLSNVFSLAMKGDMNLSIVMTTCSTFCALGMMPLLLYIYSRGIYDGDLKDKVPYKGIVISLVLVLIPCTIGIVLKSKRPQYMRYVIKGGMIIILLCSVAVTVLSAINVGKSIMFAMTPLLIATSSLMPFILFLLLYVLSALFCLNGRCRRTVSMETGCQNVQLCSTILNVAFPPEVIGPLFFFPLLYMIFQLGEGLLLIAIFWCYEKFKTPKDKTKMIYTAATTEETIPGALGNGTYKGEDCSPCTA
binding [3]: binds

B4: NTCP G60LXXXA64L/G233LXXXG237L (TMD2/7) double mutant, MYTH prey fusion (protein, UniProt Q14973 1-349)
chain: MEAHNASAPFNFTLPPNFGKRPTDLALSVILVFMLFFIMLSLGCTMEFSKIKAHLWKPKLLAILLVAQYGIMPLTAFVLGKVFRLKNIEALAILVCGCSPGGNLSNVFSLAMKGDMNLSIVMTTCSTFCALGMMPLLLYIYSRGIYDGDLKDKVPYKGIVISLVLVLIPCTIGIVLKSKRPQYMRYVIKGGMIIILLCSVAVTVLSAINVGKSIMFAMTPLLIATSSLMPFILFLLLYVLSALFCLNGRCRRTVSMETGCQNVQLCSTILNVAFPPEVIGPLFFFPLLYMIFQLGEGLLLIAIFWCYEKFKTPKDKTKMIYTAATTEETIPGALGNGTYKGEDCSPCTA
binding [3]: binds

B5: NTCP wild type, NTCP-FLAG and NTCP-V5-His expressed in HEK293 cells (protein, UniProt Q14973 1-349)
chain: MEAHNASAPFNFTLPPNFGKRPTDLALSVILVFMLFFIMLSLGCTMEFSKIKAHLWKPKGLAIALVAQYGIMPLTAFVLGKVFRLKNIEALAILVCGCSPGGNLSNVFSLAMKGDMNLSIVMTTCSTFCALGMMPLLLYIYSRGIYDGDLKDKVPYKGIVISLVLVLIPCTIGIVLKSKRPQYMRYVIKGGMIIILLCSVAVTVLSAINVGKSIMFAMTPLLIATSSLMPFIGFLLGYVLSALFCLNGRCRRTVSMETGCQNVQLCSTILNVAFPPEVIGPLFFFPLLYMIFQLGEGLLLIAIFWCYEKFKTPKDKTKMIYTAATTEETIPGALGNGTYKGEDCSPCTA
binding [4]: binds | binding [5]: binds | binding [6]: binds | binding [7]: binds
